Measurements taken from patent US9757408B2 (Hayashibara Co., Ltd., priority 2010, dated 2017).
Some of these results come from one statement about several compounds together.

Test system: VCAM-1 expression in HUVEC cells
Test: Expression of cell-adhesion factor VCAM-1 on HUVEC cells, fluorescent intensity (Experiment 6-3)
Assay type: cell-based, human
Settings: LPS, IL-1β, IFN-γ
Method: Thereafter, the supernatant in each well was removed by suction, and the cells were washed twice with PBS, followed by adding 4% paraformaldehyde to the cells and allowing them to stand at ambient temperature for one hour to fix them. After the fixation, the cells were washed thrice with PBS, followed by adding PBS containing 1% BSA and 0.05% NaN3 in an amount of 150 μL/well, and subjecting the cells to blocking at 4° C. overnight. […] Thereafter, the cells were washed four times with PBS, adding an HRPO-labeled streptavidin (“Streptavidin HRP Conjugate”, a product name of Invitrogen Corporation, CA, USA), which had been diluted with PBS containing 3% BSA by 1,000 times, in an amount of 100 μL/well and allowing the cells to stand at ambient temperature for one hour. Finally, the cells were washed four times with PBS, allowed to develop color for 10 min with “QuantaBlue™ Fluorogenic Peroxidase Substrate”, commercialized by Pierce Biotechnology, IL, USA, and determined the cells' fluorescent intensity at a wavelength of 325 to 420 nm. […] The results are in Table 6 in parallel.

| Structure (SMILES) | level at which an inhibitory tendency of the expression level of cell-adhesion factor is observed [µM] |
| --- | --- |
| Nc1ncnc2c1ncn2[C@@H]1O[C@H](CO)[C@@H](O)[C@H]1O [AN, adenosine] | ≥ 5 |
| Nc1c2ncn([C@@H]3O[C@H](CO)[C@@H](O)[C@H]3O)c2nc[n+]1[O-] [ANO, adenosine N1-oxide] | ≥ 5 |
